{"source": "PubChem BioAssay AID602196 (INSERM, 2012)", "purpose": "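Genes whose knock-down alters cisplatin killing of lung cancer cells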", "cell system": "human A549 lung cancer cells", "knock-down reagent": "siRNA pair against human genes", "timing": "48 h transfection before cisplatin; time from cisplatin to read-out not stated", "conditions": "cisplatin at a dose killing half of control-siRNA cells; exact dose and duration not given", "detection": "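Shift in cisplatin death relative to control siRNA, from -50 (all cells die) to +50 (no cells die); siRNAs harmful on their own scored 0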", "reading the numbers": "two-siRNA summed score (-2 to +2): higher = both siRNAs protect from cisplatin killing; -2 means both sensitise", "call rule": "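Each siRNA scores 0 if harmful alone by LDH or WST-1, otherwise +1 if it reduces and -1 if it increases cisplatin killing; a gene is active when both siRNAs agree (sum +2 or -2)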", "calls": "active = both siRNAs shift cisplatin killing the same way; inactive = no consistent shift, or siRNA harmful alone", "note": "This is one part, drawn at random, of about 23,000 deposited reagents. Of all reagents, 455 (2%) are marked active. 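Active includes both protection and sensitisation; some change values fall well beyond the stated -50 to +50 range.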 Not all columns of the deposit are shown. No sequences are given here. The record does not give: the amount of reagent."}
{"target": "CYP1A2 (cytochrome P450 family 1 subfamily A member 2)", "two-siRNA summed score (-2 to +2)": 0, "Call": "inactive"}
{"target": "OLFM4 (olfactomedin 4)", "two-siRNA summed score (-2 to +2)": 0, "Call": "inactive"}
{"target": "AIRE (autoimmune regulator)", "two-siRNA summed score (-2 to +2)": -1, "Call": "inactive"}
{"target": "LOC439971", "two-siRNA summed score (-2 to +2)": 0, "Call": "inactive"}
{"target": "GABRB3 (gamma-aminobutyric acid type A receptor subunit beta3)", "two-siRNA summed score (-2 to +2)": 0, "Call": "inactive"}
{"target": "GALNTL5 (polypeptide N-acetylgalactosaminyltransferase like 5)", "two-siRNA summed score (-2 to +2)": -1, "Call": "inactive"}
{"target": "YIPF7 (Yip1 domain family member 7)", "two-siRNA summed score (-2 to +2)": 1, "Call": "inactive"}
{"target": "LOC441047", "two-siRNA summed score (-2 to +2)": 0, "Call": "inactive"}

Look-ups from the entries so far.
For “Call”, OLFM4 (olfactomedin 4) is entered as inactive
Under “Call”, CYP1A2 (cytochrome P450 family 1 subfamily A member 2) is entered as inactive

The list goes on:
{"target": "ASXL3 (ASXL transcriptional regulator 3)", "two-siRNA summed score (-2 to +2)": 0, "Call": "inactive"}
{"target": "MGC34829", "two-siRNA summed score (-2 to +2)": 1, "Call": "inactive"}
{"target": "DSTYK (dual serine/threonine and tyrosine protein kinase)", "two-siRNA summed score (-2 to +2)": 0, "Call": "inactive"}
{"target": "XCL1 (X-C motif chemokine ligand 1)", "two-siRNA summed score (-2 to +2)": 0, "Call": "inactive"}
{"target": "TUBA4B (tubulin alpha 4b)", "two-siRNA summed score (-2 to +2)": 0, "Call": "inactive"}
{"target": "SLC52A3", "two-siRNA summed score (-2 to +2)": 1, "Call": "inactive"}
{"target": "C22orf46P (chromosome 22 open reading frame 46, pseudogene)", "two-siRNA summed score (-2 to +2)": 1, "Call": "inactive"}
{"target": "PUS10 (pseudouridine synthase 10)", "two-siRNA summed score (-2 to +2)": 0, "Call": "inactive"}
{"target": "EIF4A2P4 (eukaryotic translation initiation factor 4A2 pseudogene 4)", "two-siRNA summed score (-2 to +2)": 0, "Call": "inactive"}
{"target": "UTS2R (urotensin 2 receptor)", "two-siRNA summed score (-2 to +2)": 0, "Call": "inactive"}
